Source: PMC7354551
Read-outs that look alike come from different tables or passages of the source. These are yes or no findings as the source states them, for the method shown. In cells and extracts the contact can be indirect. Some binding calls cover weakened binding; strength is not graded here.

Sequences of proteins named here, by UniProt entry; tags and fusion partners are left off. A change or cut given only in a name is not applied to a line headed by its entry. A line that says so, or that is headed by a name, gives the form on record, which may keep a tag or linker. Residues count along the entry.
UniProt Q9UER7: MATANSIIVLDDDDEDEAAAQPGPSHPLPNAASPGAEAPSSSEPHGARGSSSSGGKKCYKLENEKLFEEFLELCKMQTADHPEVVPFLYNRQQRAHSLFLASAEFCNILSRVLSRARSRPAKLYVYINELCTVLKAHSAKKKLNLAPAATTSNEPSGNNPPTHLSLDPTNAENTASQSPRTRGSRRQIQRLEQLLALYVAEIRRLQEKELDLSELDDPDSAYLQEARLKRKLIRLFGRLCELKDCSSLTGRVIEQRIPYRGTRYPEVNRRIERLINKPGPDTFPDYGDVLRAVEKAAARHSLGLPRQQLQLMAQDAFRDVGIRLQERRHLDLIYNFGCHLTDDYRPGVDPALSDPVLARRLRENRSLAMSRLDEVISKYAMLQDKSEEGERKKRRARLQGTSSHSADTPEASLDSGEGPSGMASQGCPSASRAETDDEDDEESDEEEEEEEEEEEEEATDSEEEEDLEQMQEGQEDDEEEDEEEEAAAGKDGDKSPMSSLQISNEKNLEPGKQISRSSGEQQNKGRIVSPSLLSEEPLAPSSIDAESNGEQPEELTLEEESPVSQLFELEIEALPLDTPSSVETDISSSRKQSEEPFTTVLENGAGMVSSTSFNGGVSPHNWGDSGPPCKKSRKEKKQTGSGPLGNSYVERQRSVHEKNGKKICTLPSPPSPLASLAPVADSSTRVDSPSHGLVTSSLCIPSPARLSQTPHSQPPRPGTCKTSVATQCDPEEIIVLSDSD
HA-tagged Daxx 1-732 (ΔSIM mutant): residues 1-732 of Q9UER7
UniProt Q9C035: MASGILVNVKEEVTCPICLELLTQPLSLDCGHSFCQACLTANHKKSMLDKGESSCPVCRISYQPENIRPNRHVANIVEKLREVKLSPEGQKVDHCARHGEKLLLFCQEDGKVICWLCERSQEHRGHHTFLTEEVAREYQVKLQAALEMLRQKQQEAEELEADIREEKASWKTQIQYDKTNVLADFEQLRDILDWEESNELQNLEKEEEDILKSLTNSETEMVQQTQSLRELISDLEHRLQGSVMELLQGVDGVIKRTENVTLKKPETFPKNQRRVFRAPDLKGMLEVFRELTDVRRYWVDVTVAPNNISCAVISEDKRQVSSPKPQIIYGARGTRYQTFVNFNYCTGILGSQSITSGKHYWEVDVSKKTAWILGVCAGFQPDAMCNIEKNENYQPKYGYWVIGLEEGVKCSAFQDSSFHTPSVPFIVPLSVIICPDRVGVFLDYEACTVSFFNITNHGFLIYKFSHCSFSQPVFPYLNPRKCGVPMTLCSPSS
UniProt P49792: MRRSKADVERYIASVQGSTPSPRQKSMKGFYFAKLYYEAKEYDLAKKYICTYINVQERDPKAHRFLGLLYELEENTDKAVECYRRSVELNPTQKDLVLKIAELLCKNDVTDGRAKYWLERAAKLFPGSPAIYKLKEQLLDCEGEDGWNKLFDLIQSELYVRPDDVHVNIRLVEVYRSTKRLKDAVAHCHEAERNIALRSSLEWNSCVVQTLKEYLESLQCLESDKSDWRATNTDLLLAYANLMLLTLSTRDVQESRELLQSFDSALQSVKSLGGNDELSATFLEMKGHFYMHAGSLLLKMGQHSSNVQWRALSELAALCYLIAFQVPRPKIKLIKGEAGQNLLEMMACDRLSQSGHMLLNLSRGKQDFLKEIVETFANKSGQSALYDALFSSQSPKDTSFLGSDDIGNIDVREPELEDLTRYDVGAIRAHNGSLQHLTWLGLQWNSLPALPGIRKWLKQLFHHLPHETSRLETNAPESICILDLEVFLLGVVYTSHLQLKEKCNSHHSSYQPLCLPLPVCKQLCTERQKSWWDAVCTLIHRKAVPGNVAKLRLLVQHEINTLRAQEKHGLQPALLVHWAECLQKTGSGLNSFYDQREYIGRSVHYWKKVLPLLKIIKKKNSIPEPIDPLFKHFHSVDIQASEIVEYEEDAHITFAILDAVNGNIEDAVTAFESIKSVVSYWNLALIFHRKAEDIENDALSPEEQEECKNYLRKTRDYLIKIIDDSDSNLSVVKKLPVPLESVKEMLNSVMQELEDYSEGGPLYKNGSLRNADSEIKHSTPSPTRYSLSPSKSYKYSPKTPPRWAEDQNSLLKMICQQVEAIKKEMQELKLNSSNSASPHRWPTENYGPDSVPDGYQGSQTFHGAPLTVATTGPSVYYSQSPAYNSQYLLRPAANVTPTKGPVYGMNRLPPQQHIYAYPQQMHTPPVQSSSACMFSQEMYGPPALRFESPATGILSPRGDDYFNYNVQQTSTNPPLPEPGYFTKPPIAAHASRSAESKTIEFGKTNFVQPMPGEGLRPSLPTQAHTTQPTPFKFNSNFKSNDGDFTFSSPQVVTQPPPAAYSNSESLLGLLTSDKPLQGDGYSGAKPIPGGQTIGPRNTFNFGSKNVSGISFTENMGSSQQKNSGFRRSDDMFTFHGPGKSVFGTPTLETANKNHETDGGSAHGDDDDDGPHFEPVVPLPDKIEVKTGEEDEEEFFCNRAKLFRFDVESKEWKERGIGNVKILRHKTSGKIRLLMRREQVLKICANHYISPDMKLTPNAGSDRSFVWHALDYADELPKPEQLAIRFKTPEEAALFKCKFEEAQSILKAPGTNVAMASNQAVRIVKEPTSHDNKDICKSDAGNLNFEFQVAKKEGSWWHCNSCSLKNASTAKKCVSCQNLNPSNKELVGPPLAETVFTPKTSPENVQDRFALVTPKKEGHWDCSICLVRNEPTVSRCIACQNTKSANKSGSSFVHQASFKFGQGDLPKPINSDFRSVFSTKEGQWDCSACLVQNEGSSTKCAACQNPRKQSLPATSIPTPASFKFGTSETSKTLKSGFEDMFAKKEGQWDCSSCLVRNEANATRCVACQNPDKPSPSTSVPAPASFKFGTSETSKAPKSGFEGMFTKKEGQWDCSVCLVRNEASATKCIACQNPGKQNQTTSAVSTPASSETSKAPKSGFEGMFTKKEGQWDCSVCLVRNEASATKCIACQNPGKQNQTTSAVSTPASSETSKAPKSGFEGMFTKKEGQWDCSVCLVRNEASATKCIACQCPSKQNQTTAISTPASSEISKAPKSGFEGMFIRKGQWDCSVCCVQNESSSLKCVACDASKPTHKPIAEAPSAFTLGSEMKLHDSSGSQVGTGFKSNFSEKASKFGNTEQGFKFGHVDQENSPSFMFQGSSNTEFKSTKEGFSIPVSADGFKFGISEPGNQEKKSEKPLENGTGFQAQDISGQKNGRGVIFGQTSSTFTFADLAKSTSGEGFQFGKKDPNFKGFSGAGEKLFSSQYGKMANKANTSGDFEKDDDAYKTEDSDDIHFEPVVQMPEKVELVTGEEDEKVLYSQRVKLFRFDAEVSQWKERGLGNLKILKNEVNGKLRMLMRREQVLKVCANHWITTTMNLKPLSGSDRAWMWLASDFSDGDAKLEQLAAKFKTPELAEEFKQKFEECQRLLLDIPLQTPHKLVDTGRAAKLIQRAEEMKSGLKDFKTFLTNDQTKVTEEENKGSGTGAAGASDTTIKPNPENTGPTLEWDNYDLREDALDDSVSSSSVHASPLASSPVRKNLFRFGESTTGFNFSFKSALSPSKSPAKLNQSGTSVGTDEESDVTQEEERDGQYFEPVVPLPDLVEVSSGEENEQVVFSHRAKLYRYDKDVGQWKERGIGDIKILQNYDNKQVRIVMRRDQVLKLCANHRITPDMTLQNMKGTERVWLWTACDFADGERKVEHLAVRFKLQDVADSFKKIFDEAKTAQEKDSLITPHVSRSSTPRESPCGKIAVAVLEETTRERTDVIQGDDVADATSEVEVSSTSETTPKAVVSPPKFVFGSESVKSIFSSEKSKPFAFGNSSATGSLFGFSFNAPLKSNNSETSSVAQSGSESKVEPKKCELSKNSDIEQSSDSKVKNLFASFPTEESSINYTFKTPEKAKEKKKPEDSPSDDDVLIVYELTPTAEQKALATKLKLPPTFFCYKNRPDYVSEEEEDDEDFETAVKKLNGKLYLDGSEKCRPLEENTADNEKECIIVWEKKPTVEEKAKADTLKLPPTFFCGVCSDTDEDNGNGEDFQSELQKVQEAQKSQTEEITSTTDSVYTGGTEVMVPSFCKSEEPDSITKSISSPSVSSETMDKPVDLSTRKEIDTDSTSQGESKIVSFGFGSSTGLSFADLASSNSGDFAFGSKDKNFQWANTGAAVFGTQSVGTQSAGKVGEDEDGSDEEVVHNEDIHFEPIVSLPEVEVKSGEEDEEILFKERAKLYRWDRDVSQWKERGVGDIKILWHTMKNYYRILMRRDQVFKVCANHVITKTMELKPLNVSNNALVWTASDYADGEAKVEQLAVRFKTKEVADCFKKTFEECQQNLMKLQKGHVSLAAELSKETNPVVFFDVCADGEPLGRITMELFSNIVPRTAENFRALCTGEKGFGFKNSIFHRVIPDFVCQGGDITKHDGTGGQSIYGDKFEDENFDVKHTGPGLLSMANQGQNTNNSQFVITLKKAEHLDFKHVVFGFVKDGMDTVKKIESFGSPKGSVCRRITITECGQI

What was measured:
Test in all cases: co-IP
[1] = molecular target: HA-tagged Daxx 1-732 (ΔSIM mutant) (human) (UniProt Q9UER7)
[2] = molecular target: HA-tagged Daxx wild-type (death domain-associated protein 6) (human) (UniProt Q9UER7)
[3] = molecular target: Daxx (endogenous) (human (endogenous in HEK293T)) (UniProt Q9UER7)
[4] = molecular target: HA-tagged Daxx 1-732 (ΔSIM mutant) (human) (UniProt Q9UER7); remark: listed apart in the source
[5] = molecular target: HA-tagged Daxx wild-type (death domain-associated protein 6) (human) (UniProt Q9UER7); remark: listed apart in the source

Molecule | binding [1] | binding [3] | binding [4] | binding [2] | binding [5]
TRIM5α (endogenous) (from UniProt Q9C035 1-493) | binds | – | – | binds | –
TRIM34 (protein, UniProt Q9BYJ4 1-488) MASKILLNVQEEVTCPICLELLTEPLSLDCGHSLCRACITVSNKEAVTSMGGKSSCPVCGISYSFEHLQANQHLANIVERLKEVKLSPDNGKKRDLCDHHGEKLLLFCKEDRKVICWLCERSQEHRGHHTVLTEEVFKECQEKLQAVLKRLKKEEEEAEKLEADIREEKTSWKYQVQTERQRIQTEFDQLRSILNNEEQRELQRLEEEEKKTLDKFAEAEDELVQQKQLVRELISDVECRSQWSTMELLQDMSGIMKWSEIWRLKKPKMVSKKLKTVFHAPDLSRMLQMFRELTAVRCYWVDVTLNSVNLNLNLVLSEDQRQVISVPIWPFQCYNYGVLGSQYFSSGKHYWEVDVSKKTAWILGVYCRTYSRHMKYVVRRCANRQNLYTKYRPLFGYWVIGLQNKCKYGVFEESLSSDPEVLTLSMAVPPCRVGVFLDYEAGIVSFFNVTSHGSLIYKFSKCCFSQPVYPYFNPWNCPAPMTLCPPSS | – | – | binds | – | binds
Transportin-3 (protein, UniProt Q9Y5L0 1-923) MEGAKPTLQLVYQAVQALYHDPDPSGKERASFWLGELQRSVHAWEISDQLLQIRQDVESCYFAAQTMKMKIQTSFYELPTDSHASLRDSLLTHIQNLKDLSPVIVTQLALAIADLALQMPSWKGCVQTLVEKYSNDVTSLPFLLEILTVLPEEVHSRSLRIGANRRTEIIEDLAFYSSTVVSLLMTCVEKAGTDEKMLMKVFRCLGSWFNLGVLDSNFMANNKLLALLFEVLQQDKTSSNLHEAASDCVCSALYAIENVETNLPLAMQLFQGVLTLETAYHMAVAREDLDKVLNYCRIFTELCETFLEKIVCTPGQGLGDLRTLELLLICAGHPQYEVVEISFNFWYRLGEHLYKTNDEVIHGIFKAYIQRLLHALARHCQLEPDHEGVPEETDDFGEFRMRVSDLVKDLIFLIGSMECFAQLYSTLKEGNPPWEVTEAVLFIMAAIAKSVDPENNPTLVEVLEGVVRLPETVHTAVRYTSIELVGEMSEVVDRNPQFLDPVLGYLMKGLCEKPLASAAAKAIHNICSVCRDHMAQHFNGLLEIARSLDSFLLSPEAAVGLLKGTALVLARLPLDKITECLSELCSVQVMALKKLLSQEPSNGISSDPTVFLDRLAVIFRHTNPIVENGQTHPCQKVIQEIWPVLSETLNKHRADNRIVERCCRCLRFAVRCVGKGSAALLQPLVTQMVNVYHVHQHSCFLYLGSILVDEYGMEEGCRQGLLDMLQALCIPTFQLLEQQNGLQNHPDTVDDLFRLATRFIQRSPVTLLRSQVVIPILQWAIASTTLDHRDANCSVMRFLRDLIHTGVANDHEEDFELRKELIGQVMNQLGQQLVSQLLHTCCFCLPPYTLPDVAEVLWEIMQVDRPTFCRWLENSLKGLPKETTVGAVTVTHKQLTDFHKQVTSAEECKQVCWALRDFTRLFR | – | – | binds | – | binds

Second part, led by results:

binding [1] | binding [3] | binding [4] | Molecule | binding [2] | binding [5]
binds | – | – | E3 SUMO-protein ligase RanBP2 (from UniProt P49792 1-3224) | binds | –
– | binds | – | Flag-tagged human TRIM5α (from UniProt Q9C035 1-493) | – | –
